Results from the supplement of paper PMC10849652.
The list shows a part of the results.

By UniProt entry, the sequences of proteins in these tests, tags left out. Where a name states a change or a piece, a line headed by the entry shows the natural chain unless it says otherwise.
UniProt Q9NUB1: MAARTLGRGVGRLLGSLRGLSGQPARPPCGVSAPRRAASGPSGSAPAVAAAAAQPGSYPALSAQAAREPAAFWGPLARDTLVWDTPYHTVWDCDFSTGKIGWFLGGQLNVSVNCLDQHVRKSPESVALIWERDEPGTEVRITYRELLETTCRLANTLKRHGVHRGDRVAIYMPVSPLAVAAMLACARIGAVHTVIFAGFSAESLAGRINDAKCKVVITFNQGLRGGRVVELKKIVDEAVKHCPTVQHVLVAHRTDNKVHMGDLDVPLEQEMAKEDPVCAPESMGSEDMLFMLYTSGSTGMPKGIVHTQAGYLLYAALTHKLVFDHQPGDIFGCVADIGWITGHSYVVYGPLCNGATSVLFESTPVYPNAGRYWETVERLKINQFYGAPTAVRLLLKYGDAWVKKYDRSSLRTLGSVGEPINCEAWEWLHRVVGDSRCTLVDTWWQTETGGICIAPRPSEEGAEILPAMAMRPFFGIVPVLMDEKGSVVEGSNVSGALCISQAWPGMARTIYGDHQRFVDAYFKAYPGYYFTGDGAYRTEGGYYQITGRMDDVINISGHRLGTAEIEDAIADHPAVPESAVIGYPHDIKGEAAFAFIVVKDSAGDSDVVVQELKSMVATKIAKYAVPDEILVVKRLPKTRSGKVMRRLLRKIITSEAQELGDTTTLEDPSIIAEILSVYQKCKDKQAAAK
UniProt P00519, whole entry, looked up: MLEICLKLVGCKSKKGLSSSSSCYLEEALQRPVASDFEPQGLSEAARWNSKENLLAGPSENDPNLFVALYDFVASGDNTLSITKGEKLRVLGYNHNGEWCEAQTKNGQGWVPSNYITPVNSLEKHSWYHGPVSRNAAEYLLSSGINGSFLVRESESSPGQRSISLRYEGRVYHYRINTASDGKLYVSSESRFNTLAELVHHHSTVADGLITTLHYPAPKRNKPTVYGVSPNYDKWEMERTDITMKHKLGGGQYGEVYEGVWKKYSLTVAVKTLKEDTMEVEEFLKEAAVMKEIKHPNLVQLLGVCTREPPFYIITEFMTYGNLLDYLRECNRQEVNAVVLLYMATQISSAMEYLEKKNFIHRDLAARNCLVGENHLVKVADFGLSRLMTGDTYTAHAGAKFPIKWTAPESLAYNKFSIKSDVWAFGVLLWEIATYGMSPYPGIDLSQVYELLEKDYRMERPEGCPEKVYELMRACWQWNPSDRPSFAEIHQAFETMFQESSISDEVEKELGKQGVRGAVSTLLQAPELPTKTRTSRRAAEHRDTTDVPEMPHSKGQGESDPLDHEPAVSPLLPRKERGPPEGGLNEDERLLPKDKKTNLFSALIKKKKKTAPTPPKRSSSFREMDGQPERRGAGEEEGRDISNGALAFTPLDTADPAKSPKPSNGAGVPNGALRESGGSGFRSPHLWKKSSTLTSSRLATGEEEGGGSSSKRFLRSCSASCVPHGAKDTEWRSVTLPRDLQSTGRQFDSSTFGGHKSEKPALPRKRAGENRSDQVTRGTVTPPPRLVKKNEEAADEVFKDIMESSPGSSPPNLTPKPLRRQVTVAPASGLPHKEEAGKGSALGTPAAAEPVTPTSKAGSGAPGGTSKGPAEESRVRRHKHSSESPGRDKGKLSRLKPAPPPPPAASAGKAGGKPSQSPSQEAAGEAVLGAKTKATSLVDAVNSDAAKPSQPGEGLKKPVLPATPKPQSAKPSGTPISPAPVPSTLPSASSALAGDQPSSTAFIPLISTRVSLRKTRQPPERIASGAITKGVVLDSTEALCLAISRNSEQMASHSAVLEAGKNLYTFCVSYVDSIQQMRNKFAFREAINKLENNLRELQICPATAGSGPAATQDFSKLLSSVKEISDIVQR
UniProt Q6UWZ7: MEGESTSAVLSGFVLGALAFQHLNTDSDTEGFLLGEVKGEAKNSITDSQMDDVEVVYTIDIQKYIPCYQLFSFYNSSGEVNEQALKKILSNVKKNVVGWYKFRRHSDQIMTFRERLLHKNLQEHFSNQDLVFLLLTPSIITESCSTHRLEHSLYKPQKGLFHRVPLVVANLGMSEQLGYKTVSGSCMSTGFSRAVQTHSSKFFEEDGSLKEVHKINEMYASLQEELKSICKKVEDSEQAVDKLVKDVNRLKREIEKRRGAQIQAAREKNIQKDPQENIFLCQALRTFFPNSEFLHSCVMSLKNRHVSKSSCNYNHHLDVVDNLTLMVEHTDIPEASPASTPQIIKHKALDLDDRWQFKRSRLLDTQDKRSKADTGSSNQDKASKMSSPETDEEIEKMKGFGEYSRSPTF
UniProt Q99758: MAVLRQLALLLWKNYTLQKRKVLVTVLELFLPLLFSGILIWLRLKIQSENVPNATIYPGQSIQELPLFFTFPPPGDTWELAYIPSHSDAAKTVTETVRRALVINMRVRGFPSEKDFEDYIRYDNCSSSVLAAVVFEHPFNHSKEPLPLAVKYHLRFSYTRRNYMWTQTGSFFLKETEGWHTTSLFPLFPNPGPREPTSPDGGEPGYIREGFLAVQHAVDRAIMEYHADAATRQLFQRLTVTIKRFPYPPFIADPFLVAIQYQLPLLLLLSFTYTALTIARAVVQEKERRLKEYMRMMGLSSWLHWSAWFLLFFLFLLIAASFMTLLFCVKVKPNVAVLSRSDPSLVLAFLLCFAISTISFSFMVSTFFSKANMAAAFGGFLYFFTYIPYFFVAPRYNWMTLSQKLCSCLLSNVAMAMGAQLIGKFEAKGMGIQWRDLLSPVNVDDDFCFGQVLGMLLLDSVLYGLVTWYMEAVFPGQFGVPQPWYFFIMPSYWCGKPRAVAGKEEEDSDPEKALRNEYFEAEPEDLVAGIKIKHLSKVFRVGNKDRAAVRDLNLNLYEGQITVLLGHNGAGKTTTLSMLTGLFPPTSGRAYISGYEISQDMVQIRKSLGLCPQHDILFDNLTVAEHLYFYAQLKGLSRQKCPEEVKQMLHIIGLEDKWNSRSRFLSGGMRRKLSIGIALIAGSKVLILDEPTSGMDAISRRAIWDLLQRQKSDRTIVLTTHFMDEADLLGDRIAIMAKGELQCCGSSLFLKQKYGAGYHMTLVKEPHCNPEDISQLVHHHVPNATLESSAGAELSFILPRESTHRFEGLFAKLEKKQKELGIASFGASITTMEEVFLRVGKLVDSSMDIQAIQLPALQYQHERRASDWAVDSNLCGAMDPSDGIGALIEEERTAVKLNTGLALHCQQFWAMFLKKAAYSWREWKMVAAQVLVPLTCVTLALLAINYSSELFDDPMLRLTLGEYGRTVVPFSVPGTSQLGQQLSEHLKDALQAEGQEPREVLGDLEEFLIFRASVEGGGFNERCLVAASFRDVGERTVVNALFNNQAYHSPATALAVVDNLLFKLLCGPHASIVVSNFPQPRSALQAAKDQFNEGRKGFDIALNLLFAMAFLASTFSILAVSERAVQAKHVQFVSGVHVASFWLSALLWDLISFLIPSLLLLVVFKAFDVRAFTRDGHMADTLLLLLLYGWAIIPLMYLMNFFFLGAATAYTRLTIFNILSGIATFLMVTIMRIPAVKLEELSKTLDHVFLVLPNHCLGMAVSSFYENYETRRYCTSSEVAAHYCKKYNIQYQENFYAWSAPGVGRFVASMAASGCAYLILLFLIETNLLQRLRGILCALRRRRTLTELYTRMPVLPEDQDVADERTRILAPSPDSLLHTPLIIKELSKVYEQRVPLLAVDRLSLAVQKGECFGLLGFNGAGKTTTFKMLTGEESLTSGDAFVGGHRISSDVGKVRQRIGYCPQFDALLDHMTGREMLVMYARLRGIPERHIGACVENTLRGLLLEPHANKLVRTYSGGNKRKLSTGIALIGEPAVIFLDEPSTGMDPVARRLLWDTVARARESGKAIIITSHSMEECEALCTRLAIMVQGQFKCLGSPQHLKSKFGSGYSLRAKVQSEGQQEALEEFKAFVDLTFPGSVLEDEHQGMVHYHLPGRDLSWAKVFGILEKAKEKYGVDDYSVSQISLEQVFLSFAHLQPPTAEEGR
UniProt P11117: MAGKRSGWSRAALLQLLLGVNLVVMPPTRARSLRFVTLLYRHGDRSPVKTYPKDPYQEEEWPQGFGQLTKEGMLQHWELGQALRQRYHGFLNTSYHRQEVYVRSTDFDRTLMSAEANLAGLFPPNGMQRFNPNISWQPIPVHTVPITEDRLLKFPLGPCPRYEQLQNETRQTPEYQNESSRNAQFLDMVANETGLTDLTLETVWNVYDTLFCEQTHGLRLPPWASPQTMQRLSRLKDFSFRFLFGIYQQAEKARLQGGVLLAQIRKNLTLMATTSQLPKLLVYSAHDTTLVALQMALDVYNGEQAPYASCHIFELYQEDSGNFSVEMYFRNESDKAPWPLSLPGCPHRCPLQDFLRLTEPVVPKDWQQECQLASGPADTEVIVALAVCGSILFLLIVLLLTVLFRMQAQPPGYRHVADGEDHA
UniProt Q9BV23: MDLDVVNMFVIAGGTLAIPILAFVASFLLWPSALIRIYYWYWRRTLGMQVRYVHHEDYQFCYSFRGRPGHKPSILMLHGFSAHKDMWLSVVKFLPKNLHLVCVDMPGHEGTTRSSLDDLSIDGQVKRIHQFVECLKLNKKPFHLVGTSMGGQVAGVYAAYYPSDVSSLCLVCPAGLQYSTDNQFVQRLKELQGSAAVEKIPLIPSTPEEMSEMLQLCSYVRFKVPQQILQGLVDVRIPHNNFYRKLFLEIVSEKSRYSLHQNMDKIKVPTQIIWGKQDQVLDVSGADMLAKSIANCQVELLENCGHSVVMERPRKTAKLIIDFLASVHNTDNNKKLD
UniProt Q9NX38: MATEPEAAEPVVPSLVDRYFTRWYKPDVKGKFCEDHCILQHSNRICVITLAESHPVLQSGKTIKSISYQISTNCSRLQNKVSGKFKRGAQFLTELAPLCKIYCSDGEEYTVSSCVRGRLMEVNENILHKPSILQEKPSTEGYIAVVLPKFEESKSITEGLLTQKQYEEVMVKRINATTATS
UniProt Q2M2I8: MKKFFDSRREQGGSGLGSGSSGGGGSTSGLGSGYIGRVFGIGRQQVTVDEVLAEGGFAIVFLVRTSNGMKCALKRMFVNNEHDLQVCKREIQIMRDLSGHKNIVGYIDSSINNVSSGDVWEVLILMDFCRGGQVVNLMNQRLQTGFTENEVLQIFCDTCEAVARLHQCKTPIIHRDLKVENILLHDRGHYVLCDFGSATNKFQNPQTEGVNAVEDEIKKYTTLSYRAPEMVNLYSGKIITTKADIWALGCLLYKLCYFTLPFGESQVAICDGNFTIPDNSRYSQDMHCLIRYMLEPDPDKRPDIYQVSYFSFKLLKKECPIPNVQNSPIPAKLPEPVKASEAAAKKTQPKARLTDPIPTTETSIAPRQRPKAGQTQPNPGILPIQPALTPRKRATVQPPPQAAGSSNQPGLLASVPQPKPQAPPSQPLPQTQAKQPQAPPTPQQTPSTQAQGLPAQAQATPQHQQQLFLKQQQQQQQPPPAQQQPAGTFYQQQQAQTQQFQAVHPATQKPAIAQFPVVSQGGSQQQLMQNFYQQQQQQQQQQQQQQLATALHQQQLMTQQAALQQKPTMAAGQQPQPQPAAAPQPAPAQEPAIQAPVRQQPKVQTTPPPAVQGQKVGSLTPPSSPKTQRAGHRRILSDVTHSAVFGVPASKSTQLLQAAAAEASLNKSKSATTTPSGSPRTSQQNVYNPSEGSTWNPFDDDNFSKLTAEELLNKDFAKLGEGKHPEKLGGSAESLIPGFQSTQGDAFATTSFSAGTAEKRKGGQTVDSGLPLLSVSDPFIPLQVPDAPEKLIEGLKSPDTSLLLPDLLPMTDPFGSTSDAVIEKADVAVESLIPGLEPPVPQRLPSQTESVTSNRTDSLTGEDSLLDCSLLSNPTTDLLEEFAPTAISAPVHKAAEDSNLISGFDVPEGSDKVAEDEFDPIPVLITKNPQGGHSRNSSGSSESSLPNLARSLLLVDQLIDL
UniProt Q9ULC5: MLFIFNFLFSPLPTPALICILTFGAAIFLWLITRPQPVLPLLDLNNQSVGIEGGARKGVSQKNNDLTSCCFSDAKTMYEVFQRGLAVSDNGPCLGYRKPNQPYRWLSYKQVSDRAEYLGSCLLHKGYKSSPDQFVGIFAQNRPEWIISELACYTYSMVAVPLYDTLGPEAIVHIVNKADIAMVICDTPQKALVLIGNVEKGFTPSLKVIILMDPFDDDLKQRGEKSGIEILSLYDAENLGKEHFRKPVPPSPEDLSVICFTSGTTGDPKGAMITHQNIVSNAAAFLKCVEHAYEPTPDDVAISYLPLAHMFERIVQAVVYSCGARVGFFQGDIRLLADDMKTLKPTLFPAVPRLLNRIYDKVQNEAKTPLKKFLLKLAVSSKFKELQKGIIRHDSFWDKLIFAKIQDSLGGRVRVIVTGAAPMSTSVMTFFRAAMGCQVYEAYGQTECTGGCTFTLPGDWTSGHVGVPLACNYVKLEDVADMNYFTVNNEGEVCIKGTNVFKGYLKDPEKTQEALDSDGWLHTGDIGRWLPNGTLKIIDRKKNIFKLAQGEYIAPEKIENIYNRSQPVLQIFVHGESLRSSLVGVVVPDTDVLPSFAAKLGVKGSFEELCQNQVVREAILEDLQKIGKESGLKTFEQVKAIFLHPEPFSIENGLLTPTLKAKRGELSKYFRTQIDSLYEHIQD

These targets were tested with CCn1c(C(=O)N(C2CC2)C2CC2)cc2c3c(ncn3C)c(Nc3cc(C)n(C)n3)nc21 (assay: log2 fold change, soluble protein after heating vs DMSO (PISA); higher = thermal stabilisation; K562 cells, 10 uM, 30 min; active = over 0.2 and 3.5 SD of the protein, either way, in both replicates (recomputed)).
In short: (§1)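 Values are thermal stability changes relative to control samples and are taken from duplicates. They are stated as log2 fold changes. Before quantification by TMTpro 16plex LC-MS/MS with equalised channel sums, K562 cells at 2×10^6 cells/mL were treated with 10 μM compound for 30 min, heated in aliquots for 3 min across 48°C-58°C, pooled, extracted in PBS with 0.5% NP-40 at 4°C, and centrifuged at 21,000xg for 90 min to give the soluble supernatant.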

**Q.** How did the log2 fold change turn out when ABCB4 (UniProt P21439) was run?
**A.** The log2 fold change was inactive: -0.154.

**Q.** How did the log2 fold change turn out when ACTN4 (UniProt K7EJH8) was run?
**A.** Its log2 fold change is inactive: 0.014.

**Q.** ACYP2 (UniProt P14621) was tested. Which log2 fold change did it give?
**A.** Its log2 fold change is inactive: 0.135.

**Q.** For A2ML1 (UniProt A8K2U0), which log2 fold change is on record?
**A.** Its log2 fold change is inactive: -0.042.

**Q.** How did the log2 fold change turn out when ACSS1 (UniProt Q9NUB1) was run?
**A.** The log2 fold change was inactive: -0.078.

**Q.** Which log2 fold change does the source give for ABL1 isoform 2 (UniProt P00519) here?
**A.** Its log2 fold change is inactive: 0.012.

**Q.** With ABRAXAS1 (UniProt Q6UWZ7) as the target, how does the log2 fold change read?
**A.** The log2 fold change was inactive: 0.052.

These targets were tested with CCn1cc(-c2ccnc3[nH]c(-c4cccc(CN(C)C)c4)cc23)c(-c2ccc(NC(=O)N(C)C)cc2)n1 in the same assay as above.
In short: as §1

**Q.** With ACSF3 (UniProt Q4G176) as the target, how does the log2 fold change read?
**A.** Its log2 fold change is inactive: -0.17.

**Q.** Which log2 fold change does the source give for ACAT1, A0A5F9ZHJ0 here?
**A.** The log2 fold change was inactive: 0.123.

**Q.** For AAMP (UniProt Q13685), which log2 fold change is on record?
**A.** Its log2 fold change is inactive: -0.016.

**Q.** Which log2 fold change does the source give for ACADVL isoform 3 (UniProt P49748) here?
**A.** The log2 fold change was inactive: -0.014.

**Q.** Which log2 fold change does the source give for ACSL1 (UniProt P33121) here?
**A.** Its log2 fold change is inactive: -0.031.

**Q.** With ABCA3 (UniProt Q99758) as the target, how does the log2 fold change read?
**A.** The log2 fold change was inactive: 0.168.

**Q.** For ACVR1 (UniProt Q04771), which log2 fold change is on record?
**A.** Its log2 fold change is inactive: 0.065.

**Q.** For AAGAB (UniProt Q6PD74), which log2 fold change is on record?
**A.** Its log2 fold change is inactive: -0.018.

**Q.** For ACP2 (UniProt P11117), which log2 fold change is on record?
**A.** Its log2 fold change is inactive: -0.02.

**Q.** For ABHD6 (UniProt Q9BV23), which log2 fold change is on record?
**A.** Its log2 fold change is inactive: 0.111.

**Q.** For ACACB (UniProt O00763), which log2 fold change is on record?
**A.** The log2 fold change was inactive: 0.086.

**Q.** For AAR2 (UniProt Q9Y312), which log2 fold change is on record?
**A.** The log2 fold change was inactive: 0.106.

**Q.** ACP1 (UniProt P24666) was tested. Which log2 fold change did it give?
**A.** The log2 fold change was inactive: 0.077.

**Q.** How did the log2 fold change turn out when ACO2 (UniProt Q99798) was run?
**A.** The log2 fold change was inactive: -0.115.

**Q.** With ACIN1 (UniProt Q9UKV3) as the target, how does the log2 fold change read?
**A.** The log2 fold change was inactive: 0.004.

**Q.** Which log2 fold change does the source give for ABHD11 (UniProt Q8NFV4) here?
**A.** The log2 fold change was inactive: 0.086.

**Q.** How did the log2 fold change turn out when ACTN4 (UniProt K7EJH8) was run?
**A.** The log2 fold change was inactive: 0.049.

**Q.** ABHD16A (UniProt O95870) was tested. Which log2 fold change did it give?
**A.** The log2 fold change was inactive: -0.09.

**Q.** How did the log2 fold change turn out when ACADM isoform 2 (UniProt P11310) was run?
**A.** The log2 fold change was inactive: -0.042.

**Q.** How did the log2 fold change turn out when ABITRAM (UniProt Q9NX38) was run?
**A.** The log2 fold change was inactive: 0.137.

**Q.** AAK1 (UniProt Q2M2I8) was tested. Which log2 fold change did it give?
**A.** Its log2 fold change is inactive: -0.141.

**Q.** For AARSD1 isoform 3 (UniProt Q9BTE6), which log2 fold change is on record?
**A.** The log2 fold change was inactive: -0.01.

**Q.** How did the log2 fold change turn out when ACTBL2 (UniProt Q562R1) was run?
**A.** The log2 fold change was inactive: 0.162.

**Q.** For ACTG1 (UniProt K7EM38), which log2 fold change is on record?
**A.** Its log2 fold change is inactive: -0.216.

**Q.** How did the log2 fold change turn out when ACTR1B (UniProt P42025) was run?
**A.** Its log2 fold change is active: -0.581.

**Q.** With AARS2 (UniProt Q5JTZ9) as the target, how does the log2 fold change read?
**A.** The log2 fold change was inactive: -0.05.

**Q.** How did the log2 fold change turn out when ACSL5 isoform 3 (UniProt Q9ULC5) was run?
**A.** The log2 fold change was inactive: -0.068.

**Q.** Which log2 fold change does the source give for ACSS1 (UniProt Q9NUB1) here?
**A.** The log2 fold change was inactive: -0.042.

**Q.** ABL1 isoform 2 (UniProt P00519) was tested. Which log2 fold change did it give?
**A.** Its log2 fold change is inactive: 0.073.

**Q.** Which log2 fold change does the source give for ABRAXAS1 (UniProt Q6UWZ7) here?
**A.** Its log2 fold change is inactive: 0.207.

**Q.** Which log2 fold change does the source give for ACAP2 (UniProt Q15057) here?
**A.** Its log2 fold change is inactive: -0.015.

These targets were tested with CN(C)CC(=O)Nc1ccc2[nH]c(=O)c3ccccc3c2c1 in the same assay as above.
In short: as §1

**Q.** How did the log2 fold change turn out when ACSF3 (UniProt Q4G176) was run?
**A.** The log2 fold change was inactive: 0.008.

**Q.** With AAMP (UniProt Q13685) as the target, how does the log2 fold change read?
**A.** Its log2 fold change is inactive: 0.011.

**Q.** For ACADVL isoform 3 (UniProt P49748), which log2 fold change is on record?
**A.** The log2 fold change was inactive: 0.004.

**Q.** Which log2 fold change does the source give for ACSL1 (UniProt P33121) here?
**A.** Its log2 fold change is inactive: 0.

**Q.** How did the log2 fold change turn out when ACOX3 (UniProt O15254) was run?
**A.** The log2 fold change was inactive: -0.129.

**Q.** With ABCB4 (UniProt P21439) as the target, how does the log2 fold change read?
**A.** Its log2 fold change is inactive: -0.074.

**Q.** Which log2 fold change does the source give for ABCA3 (UniProt Q99758) here?
**A.** Its log2 fold change is inactive: 0.108.

**Q.** With ACVR1 (UniProt Q04771) as the target, how does the log2 fold change read?
**A.** The log2 fold change was inactive: -0.095.

**Q.** For AAGAB (UniProt Q6PD74), which log2 fold change is on record?
**A.** The log2 fold change was inactive: 0.021.

**Q.** For ACP2 (UniProt P11117), which log2 fold change is on record?
**A.** The log2 fold change was inactive: -0.029.

**Q.** With ACACB (UniProt O00763) as the target, how does the log2 fold change read?
**A.** Its log2 fold change is inactive: 0.061.

**Q.** For AAR2 (UniProt Q9Y312), which log2 fold change is on record?
**A.** Its log2 fold change is inactive: -0.001.

**Q.** For ACP1 (UniProt P24666), which log2 fold change is on record?
**A.** Its log2 fold change is inactive: 0.12.

**Q.** ACO2 (UniProt Q99798) was tested. Which log2 fold change did it give?
**A.** Its log2 fold change is inactive: 0.055.

**Q.** For ACIN1 (UniProt Q9UKV3), which log2 fold change is on record?
**A.** The log2 fold change was inactive: -0.034.

**Q.** With ABHD11 (UniProt Q8NFV4) as the target, how does the log2 fold change read?
**A.** Its log2 fold change is inactive: 0.007.

**Q.** ABHD16A (UniProt O95870) was tested. Which log2 fold change did it give?
**A.** The log2 fold change was inactive: -0.018.

**Q.** For ACYP2 (UniProt P14621), which log2 fold change is on record?
**A.** The log2 fold change was inactive: -0.075.

**Q.** How did the log2 fold change turn out when ACADM isoform 2 (UniProt P11310) was run?
**A.** The log2 fold change was inactive: -0.024.

**Q.** For ABITRAM (UniProt Q9NX38), which log2 fold change is on record?
**A.** The log2 fold change was inactive: 0.051.

**Q.** Which log2 fold change does the source give for AAK1 (UniProt Q2M2I8) here?
**A.** Its log2 fold change is inactive: 0.087.

**Q.** Which log2 fold change does the source give for AARSD1 isoform 3 (UniProt Q9BTE6) here?
**A.** Its log2 fold change is inactive: 0.037.

**Q.** For ACTBL2 (UniProt Q562R1), which log2 fold change is on record?
**A.** The log2 fold change was inactive: -0.3.

**Q.** ACTG1 (UniProt K7EM38) was tested. Which log2 fold change did it give?
**A.** The log2 fold change was inactive: -0.019.

**Q.** For ACTR1B (UniProt P42025), which log2 fold change is on record?
**A.** Its log2 fold change is inactive: 0.021.

**Q.** For AARS2 (UniProt Q5JTZ9), which log2 fold change is on record?
**A.** Its log2 fold change is inactive: 0.031.

**Q.** For A2ML1 (UniProt A8K2U0), which log2 fold change is on record?
**A.** Its log2 fold change is inactive: -0.043.

**Q.** ACSL5 isoform 3 (UniProt Q9ULC5) was tested. Which log2 fold change did it give?
**A.** The log2 fold change was inactive: -0.084.

**Q.** For ACSS1 (UniProt Q9NUB1), which log2 fold change is on record?
**A.** The log2 fold change was inactive: 0.033.

**Q.** ABL1 isoform 2 (UniProt P00519) was tested. Which log2 fold change did it give?
**A.** Its log2 fold change is inactive: 0.066.

**Q.** ABRAXAS1 (UniProt Q6UWZ7) was tested. Which log2 fold change did it give?
**A.** The log2 fold change was inactive: -0.072.

**Q.** How did the log2 fold change turn out when ACAP2 (UniProt Q15057) was run?
**A.** The log2 fold change was inactive: 0.065.

**Q.** Which log2 fold change does the source give for ACAA2 (UniProt K7ER88) here?
**A.** The log2 fold change was inactive: -0.166.
